{"source": "the supplement of paper PMC4604168 (melanoma cell lines)", "note": "The list shows a part of the results. Repeats are few or missing, and single values can be far off.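 The apoptosis fraction was the count of cleaved-PARP antibody-stained nuclei relative to all DNA-stained nuclei, imaged in 1,536-well plates. Screening doses were set so most cells survived, and baseline and induced cleaved-PARP levels vary greatly across cell lines.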"}
{"tested_on": "IPC-298", "assay": "cleaved PARP positive nuclei fraction relative to DMSO control; melanoma cells; higher = more apoptosis", "details": "library dose: low library concentration; 72 h", "units": {"cleaved PARP positive nuclei fraction": "%"}}
{"smiles": "CC[C@]1(O)C[C@H]2CN(CCc3c([nH]c4ccccc34)[C@@](C(=O)OC)(c3cc4c(cc3OC)N(C=O)[C@H]3[C@@](O)(C(=O)OC)[C@H](OC(C)=O)[C@]5(CC)C=CCN6CC[C@]43[C@@H]65)C2)C1", "note": "[vincristine] + CO[C@H]1C[C@@H]2CC[C@@H](C)[C@@](O)(O2)C(=O)C(=O)N2CCCC[C@H]2C(=O)O[C@H]([C@H](C)C[C@@H]2CC[C@@H](OCCO)[C@H](OC)C2)CC(=O)[C@H](C)/C=C(\\C)[C@@H](O)[C@@H](OC)C(=O)[C@H](C)C[C@H](C)/C=C/C=C/C=C/1C [everolimus] (first compound 0.0001 µM, partner dose 0.02 µM)", "cleaved PARP positive nuclei fraction": 162}
{"smiles": "COc1cc([C@@H]2c3cc4c(cc3[C@@H](O[C@@H]3O[C@@H]5CO[C@@H](C)O[C@H]5[C@H](O)[C@H]3O)[C@H]3COC(=O)[C@H]23)OCO4)cc(OC)c1O", "note": "[etoposide] + CC1(C)CCC(c2ccc(Cl)cc2)=C(CN2CCN(c3ccc(C(=O)NS(=O)(=O)c4ccc(N[C@H](CCN5CCOCC5)CSc5ccccc5)c(S(=O)(=O)C(F)(F)F)c4)cc3)CC2)C1 [ABT263] (first compound 0.02 µM, partner dose 0.4 µM)", "cleaved PARP positive nuclei fraction": 87.2}
{"smiles": "CC[C@]1(O)C[C@H]2CN(CCc3c([nH]c4ccccc34)[C@@](C(=O)OC)(c3cc4c(cc3OC)N(C=O)[C@H]3[C@@](O)(C(=O)OC)[C@H](OC(C)=O)[C@]5(CC)C=CCN6CC[C@]43[C@@H]65)C2)C1", "note": "[vincristine] + NC(=O)c1ccc(N(C(N)=O)c2c(F)cccc2F)nc1-c1ccc(F)cc1F [VX702] (first compound 0.0001 µM, partner dose 0.4 µM)", "cleaved PARP positive nuclei fraction": 117}
{"smiles": "Cc1ccc(Nc2nccc(N(C)c3ccc4c(C)n(C)nc4c3)n2)cc1S(N)(=O)=O", "note": "[Pazopanib] + C=CCNC1=C2C[C@@H](C)C[C@H](OC)[C@H](O)[C@@H](C)/C=C(\\C)[C@H](OC(N)=O)[C@@H](OC)/C=C\\C=C(/C)C(=O)NC(=CC1=O)C2=O [Tanespimycin] (first compound 0.4 µM, partner dose 0.002 µM)", "cleaved PARP positive nuclei fraction": 210}
{"smiles": "O=C(Nc1cc(C(F)(F)F)cc(C(F)(F)F)c1)c1cc(Cl)ccc1O", "note": "+ Cn1c(=O)n(-c2ccc(C(C)(C)C#N)cc2)c2c3cc(-c4cnc5ccccc5c4)ccc3ncc21 [NVP-BEZ235] (first compound 0.016 µM, partner dose 0.004 µM)", "cleaved PARP positive nuclei fraction": 169}
{"smiles": "Cc1cn(-c2cc(NC(=O)c3ccc(C)c(Nc4nccc(-c5cccnc5)n4)c3)cc(C(F)(F)F)c2)cn1", "note": "[nilotinib] + Cc1nc(Nc2ncc(C(=O)Nc3c(C)cccc3Cl)s2)cc(N2CCN(CCO)CC2)n1 [dasatanib] (first compound 0.2 µM, partner dose 0.004 µM)", "cleaved PARP positive nuclei fraction": 55.7}
{"smiles": "Cc1cc(Nc2cc(N3CCN(C)CC3)nc(Sc3ccc(NC(=O)C4CC4)cc3)n2)n[nH]1", "note": "[Tozasertib] + O=C(O)c1ccc2c(c1)nc(Nc1cccc(Cl)c1)c1ccncc12 [CX4945] (first compound 0.006 µM, partner dose 0.4 µM)", "cleaved PARP positive nuclei fraction": 92.9}
{"smiles": "O=C(Nc1cc(C(F)(F)F)cc(C(F)(F)F)c1)c1cc(Cl)ccc1O", "note": "+ CO[C@H]1C[C@@H]2CC[C@@H](C)[C@@](O)(O2)C(=O)C(=O)N2CCCC[C@H]2C(=O)O[C@H]([C@H](C)C[C@@H]2CC[C@@H](OCCO)[C@H](OC)C2)CC(=O)[C@H](C)/C=C(\\C)[C@@H](O)[C@@H](OC)C(=O)[C@H](C)C[C@H](C)/C=C/C=C/C=C/1C [everolimus] (first compound 0.016 µM, partner dose 0.02 µM)", "cleaved PARP positive nuclei fraction": 225}
{"smiles": "Cc1cc(Nc2cc(N3CCN(C)CC3)nc(Sc3ccc(NC(=O)C4CC4)cc3)n2)n[nH]1", "note": "[Tozasertib] + Nc1cccc2c1CN(C1CCC(=O)NC1=O)C2=O [lenalidomide] (first compound 0.006 µM, partner dose 1 µM)", "cleaved PARP positive nuclei fraction": 43.1}
{"smiles": "O=C(Nc1cc(C(F)(F)F)cc(C(F)(F)F)c1)c1cc(Cl)ccc1O", "note": "+ Cn1nnc2c(C(N)=O)ncn2c1=O [temozolomide] (first compound 0.016 µM, partner dose 2 µM)", "cleaved PARP positive nuclei fraction": 87.7}
{"smiles": "COc1cc([C@@H]2c3cc4c(cc3[C@@H](O[C@@H]3O[C@@H]5CO[C@@H](C)O[C@H]5[C@H](O)[C@H]3O)[C@H]3COC(=O)[C@H]23)OCO4)cc(OC)c1O", "note": "[etoposide] + Cn1sc(=O)n(Cc2ccccc2)c1=O [TDZD-8] (first compound 0.02 µM, partner dose 0.4 µM)", "cleaved PARP positive nuclei fraction": 92.8}
{"smiles": "Cc1cn(-c2cc(NC(=O)c3ccc(C)c(Nc4nccc(-c5cccnc5)n4)c3)cc(C(F)(F)F)c2)cn1", "note": "[nilotinib] + Nc1nc(F)nc2c1ncn2[C@@H]1O[C@H](CO)[C@@H](O)[C@@H]1O [fludarabine] (first compound 0.2 µM, partner dose 0.2 µM)", "cleaved PARP positive nuclei fraction": 47.3}
{"smiles": "O=c1[nH]nc(Sc2ncc([N+](=O)[O-])s2)n1-c1ccc2c(c1)OCCO2", "note": "+ CO[C@H]1C[C@@H]2CC[C@@H](C)[C@@](O)(O2)C(=O)C(=O)N2CCCC[C@H]2C(=O)O[C@H]([C@H](C)C[C@@H]2CC[C@@H](OCCO)[C@H](OC)C2)CC(=O)[C@H](C)/C=C(\\C)[C@@H](O)[C@@H](OC)C(=O)[C@H](C)C[C@H](C)/C=C/C=C/C=C/1C [everolimus] (first compound 0.2 µM, partner dose 0.02 µM)", "cleaved PARP positive nuclei fraction": 220}
{"smiles": "O=c1[nH]nc(Sc2ncc([N+](=O)[O-])s2)n1-c1ccc2c(c1)OCCO2", "note": "+ Cn1nnc2c(C(N)=O)ncn2c1=O [temozolomide] (first compound 0.2 µM, partner dose 2 µM)", "cleaved PARP positive nuclei fraction": 182}
{"smiles": "Cc1cc(Nc2cc(N3CCN(C)CC3)nc(Sc3ccc(NC(=O)C4CC4)cc3)n2)n[nH]1", "note": "[Tozasertib] + C[C@@H](Oc1cc(-c2cnn(C3CCNCC3)c2)cnc1N)c1c(Cl)ccc(F)c1Cl [Crizotinib] (first compound 0.006 µM, partner dose 0.2 µM)", "cleaved PARP positive nuclei fraction": 87.4}
{"smiles": "O=c1[nH]nc(Sc2ncc([N+](=O)[O-])s2)n1-c1ccc2c(c1)OCCO2", "note": "+ NC(=O)c1ccc(N(C(N)=O)c2c(F)cccc2F)nc1-c1ccc(F)cc1F [VX702] (first compound 0.2 µM, partner dose 0.4 µM)", "cleaved PARP positive nuclei fraction": 166}
{"smiles": "Cc1ccc(Nc2nccc(N(C)c3ccc4c(C)n(C)nc4c3)n2)cc1S(N)(=O)=O", "note": "[Pazopanib] + CO[C@H]1C[C@@H]2CC[C@@H](C)[C@@](O)(O2)C(=O)C(=O)N2CCCC[C@H]2C(=O)O[C@H]([C@H](C)C[C@@H]2CC[C@@H](OCCO)[C@H](OC)C2)CC(=O)[C@H](C)/C=C(\\C)[C@@H](O)[C@@H](OC)C(=O)[C@H](C)C[C@H](C)/C=C/C=C/C=C/1C [everolimus] (first compound 0.4 µM, partner dose 0.02 µM)", "cleaved PARP positive nuclei fraction": 230}
{"smiles": "Cc1ccc(Nc2nccc(N(C)c3ccc4c(C)n(C)nc4c3)n2)cc1S(N)(=O)=O", "note": "[Pazopanib] + CCCS(=O)(=O)Nc1ccc(F)c(C(=O)c2c[nH]c3ncc(Cl)cc23)c1F [PLX4720] (first compound 0.4 µM, partner dose 0.08 µM)", "cleaved PARP positive nuclei fraction": 108}
{"smiles": "N#CC[C@H](C1CCCC1)n1cc(-c2ncnc3[nH]ccc23)cn1", "note": "[ruxolitinib] + OCc1c[nH]c2ccccc12 [Indole-3-carbinol] (first compound 1 µM, partner dose 0.8 µM)", "cleaved PARP positive nuclei fraction": 196}
{"smiles": "Cc1ccc(Nc2nccc(N(C)c3ccc4c(C)n(C)nc4c3)n2)cc1S(N)(=O)=O", "note": "[Pazopanib] + OCc1c[nH]c2ccccc12 [Indole-3-carbinol] (first compound 0.4 µM, partner dose 0.8 µM)", "cleaved PARP positive nuclei fraction": 66.2}
{"smiles": "COc1cc([C@@H]2c3cc4c(cc3[C@@H](O[C@@H]3O[C@@H]5CO[C@@H](C)O[C@H]5[C@H](O)[C@H]3O)[C@H]3COC(=O)[C@H]23)OCO4)cc(OC)c1O", "note": "[etoposide] + C[C@]1(O)C[C@@H](c2nc(-c3ccc4ccc(-c5ccccc5)nc4c3)c3c(N)nccn32)C1 [OSI906] (first compound 0.02 µM, partner dose 0.4 µM)", "cleaved PARP positive nuclei fraction": 47.2}
{"smiles": "N#CC[C@H](C1CCCC1)n1cc(-c2ncnc3[nH]ccc23)cn1", "note": "[ruxolitinib] + CO[C@H]1C[C@@H]2CC[C@@H](C)[C@@](O)(O2)C(=O)C(=O)N2CCCC[C@H]2C(=O)O[C@H]([C@H](C)C[C@@H]2CC[C@@H](OCCO)[C@H](OC)C2)CC(=O)[C@H](C)/C=C(\\C)[C@@H](O)[C@@H](OC)C(=O)[C@H](C)C[C@H](C)/C=C/C=C/C=C/1C [everolimus] (first compound 1 µM, partner dose 0.02 µM)", "cleaved PARP positive nuclei fraction": 37.8}
{"smiles": "Cc1ccc(Nc2nccc(N(C)c3ccc4c(C)n(C)nc4c3)n2)cc1S(N)(=O)=O", "note": "[Pazopanib] + Cn1nnc2c(C(N)=O)ncn2c1=O [temozolomide] (first compound 0.4 µM, partner dose 2 µM)", "cleaved PARP positive nuclei fraction": 227}
{"smiles": "O=c1[nH]nc(Sc2ncc([N+](=O)[O-])s2)n1-c1ccc2c(c1)OCCO2", "note": "+ CCCS(=O)(=O)Nc1ccc(F)c(C(=O)c2c[nH]c3ncc(Cl)cc23)c1F [PLX4720] (first compound 0.2 µM, partner dose 0.08 µM)", "cleaved PARP positive nuclei fraction": 43.7}
{"smiles": "Cc1ccc(Nc2nccc(N(C)c3ccc4c(C)n(C)nc4c3)n2)cc1S(N)(=O)=O", "note": "[Pazopanib] + CC(=O)c1c(C)c2cnc(Nc3ccc(N4CCNCC4)cn3)nc2n(C2CCCC2)c1=O [palbociclib] (first compound 0.4 µM, partner dose 0.04 µM)", "cleaved PARP positive nuclei fraction": 228}
